# No constants are given. Whether binding was seen depends on the method and setting. A result given as binding can be weak or reduced; the word gives no strength.
# B1: HD8 (antibody, IgG2, V domains shown)
# VH: QVQLQHSGPGLVKPSQTLSLTCAISGDSVSSNSASWNWIRQSPSRGLEWLGRTYYRSKWYNDYAVSVKSRIVINPDTSKNQFSLQLNSVTPEDTAVYYCARENFYGSETCHKKYYCYGMDVWGQGTTVTVSS
# VL: AIQLTQSPSSLSASVGDRVTITCRASQGISSALAWYQQKPGKAPKLLIYDASSLESGVPSRFSGSGSGTDFTLTISSLQPEDFATYYCQQFNSFPLTFGGGTKVEIK
# Experiments:
# [1] = target: HLA-DR counterpart on a chimpanzee specimen (chimpanzee); test: flow cytometry on cells, as in Example 10
# [2] = target: HLA-DR counterpart on crab-eating monkey specimens (crab-eating monkey); test: flow cytometry on cells, as in Example 10
binder,measurement,setting,value
B1,binding,[1],binds
same,binding,[2],binds
